Assay results reported in patent publication US11945779B2, “Inhibitors of cancer metastasis through inhibiting migration and invasion of cancer cells” (VSpharmtech, priority 2018, dated 2024).
Some entries share one result that the patent states for a list of compounds.

Tested on: colon cancer cell line DLD-1
Assay: Trans-well cancer cell migration inhibition, DLD-1
Assay type: cell-based, human
Conditions: cancer cell migration/invasion, FIGS. 4A, 4B, 5, 6A, 6B, 8
Experimental: In order to analyze cancer cell migration inhibitory activity of CG-608, CG-609 or CG-618 prepared in Examples 1, 2, or 9, cell migration inhibitory activity was measured using a trans-well by targeting a colon cancer cell line DLD-1 (ATCC-CCL-221), pancreatic cancer cell lines AsPc-1 (ATCC-CCL-1682). CFPAC-1 (ATCC-CCL-1918). Panc-1 (ATCC-CCL-1469), and Miapaca-2 (ATCC-CCL-1420), a skin cancer cell line A375-P (ATCC-CCL-3224), lung cancer cell lines HCC-827 (ATCC-CCL-2868), A549 (ATCC-CCL-185), and NCI-H460 (ATCC-CCL-177), a prostate cancer cell line DU145 (ATCC-HTB-81), a stomach cancer cell line NuGC-3 (JCRB0822), and an ovarian cancer cell line SKOV-3 (ATCC-HTB-77).
First, the number of DLD-1 cells was measured using a hemocytometer in an RPMI medium without FBS. […] After culture, […] of crystal violet (5 mg/mL of 20% […] was added to each well of the 24-well plate and the trans-well was dyed at room temperature for 30 minutes. The dyed trans-well was washed with PBS and non-migrated cells were wiped off with cotton swabs. The prepared sample was photographed with an inverted microscope mounted with a digital camera (TE 300, Nikon. Japan) and then the number of migrated cells was counted. The degree of inhibiting cell migration was calculated by Equation 1 for a group treated with the sample compared to a control group (DMSO). […]

SMILES | Effective concentration relative to benproperine (times lower) [times]
CC1CCCCN1[C@@H](C)COc1ccccc1Cc1ccccc1 (stereo partly drawn) [CG-608, 1-((S)-1-(2-benzylphenoxy)propan-2-yl)-2-methylpiperidine] | ≥ 10
C[C@H](COc1ccccc1Cc1ccccc1)N1CCCC[C@@H]1C [CG-609, (S)-1-((R)-1-(2-benzylphenoxy)propan-2-yl)-2-methylpiperidine] | ≥ 10
